Measured values taken from US20070142295A1, “Thrombopoietic compounds” (AMGEN INC., priority 1998, published 2007).
At least one structure is not confirmed: it was looked up by name or label, or the drawing left a doubt.

Tests used:
c-Mp1 = molecular target: T1, c-Mp1 (Homo sapiens, UniProt P40238); settings: cited from earlier work
T1 sequence (P40238 26-635): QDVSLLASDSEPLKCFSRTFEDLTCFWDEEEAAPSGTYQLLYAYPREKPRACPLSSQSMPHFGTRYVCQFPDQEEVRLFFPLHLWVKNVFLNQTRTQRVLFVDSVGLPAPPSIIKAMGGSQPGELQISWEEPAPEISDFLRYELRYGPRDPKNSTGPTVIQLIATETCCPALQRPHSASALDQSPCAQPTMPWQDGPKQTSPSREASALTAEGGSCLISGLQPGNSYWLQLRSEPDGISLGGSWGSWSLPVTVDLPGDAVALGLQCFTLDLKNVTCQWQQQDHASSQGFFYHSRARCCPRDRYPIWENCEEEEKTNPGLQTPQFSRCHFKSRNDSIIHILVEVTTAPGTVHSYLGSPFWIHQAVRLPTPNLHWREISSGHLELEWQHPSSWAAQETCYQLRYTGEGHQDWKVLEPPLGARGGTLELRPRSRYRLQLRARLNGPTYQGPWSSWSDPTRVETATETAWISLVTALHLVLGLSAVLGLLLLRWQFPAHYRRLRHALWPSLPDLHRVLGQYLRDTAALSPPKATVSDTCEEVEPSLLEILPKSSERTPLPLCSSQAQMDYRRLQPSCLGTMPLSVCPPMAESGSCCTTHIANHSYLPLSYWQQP

human mpl receptor = molecular target: T2, human mpl receptor (Homo sapiens, UniProt P40238); assay: TPO in vitro bioassay: mitogenic/cell-proliferation assay with IL-3 dependent murine 32D cells transfected with human mpl receptor; format: cell-based; settings: cell proliferation assay
T2 construct: murine 32D cells transfected with the full-length c-Mp1; expressed in transfected cells; host or cells: IL-3 dependent clone of murine 32D cells
T2 sequence (P40238 26-635): T1 sequence (P40238 26-635)
Description: Bioactivity assay. The TPO in vitro bioassay is a mitogenic assay utilizing an IL-3 dependent clone of murine 32D cells that have been transfected with human mpl receptor. This assay is described in greater detail in WO 95/26746. Cells are maintained in MEM medium containing 10% Fetal Clone II and 1 ng/ml mIL-3. Prior to sample addition, cells are prepared by rinsing twice with growth medium lacking mIL-3. An extended twelve point TPO standard curve is prepared, ranging from 3333 to 39 pg/ml. Four dilutions, estimated to fall within the linear portion of the standard curve, (1000 to 125 pg/ml), are prepared for each sample and run in triplicate. A volume of 100 μl of each dilution of sample or standard is added to appropriate wells of a 96 well microtiter plate containing 10,000 cells/well. After forty-four hours at 37° C. and 10% CO2, MTS (a tetrazolium compound which is bioreduced by cells to a formazan) is added to each well. Approximately six hours later, the optical density is read on a plate reader at 490 nm. […] Concentrations of unknown test samples are determined using the resulting linear equation and a correction for the dilution factor.
The resulting peptides are readily accessible by conventional solid phase peptide synthesis methods (Merrifiled, R. B., Journal of the American Chemical Society 85:2149 (1963)) with either Fmoc or t-Boc chemistry. […]

Structure (SMILES): CC[C@H](C)[C@H](N)C(=O)N[C@@H](CCC(=O)O)C(=O)NCC(=O)N1CCC[C@H]1C(=O)N[C@H](C(=O)N[C@@H](CC(C)C)C(=O)N[C@@H](CCCNC(=N)N)C(=O)N[C@@H](CCC(N)=O)C(=O)N[C@@H](Cc1c[nH]c2ccccc12)C(=O)N[C@@H](CC(C)C)C(=O)N[C@@H](C)C(=O)N[C@@H](C)C(=O)N[C@@H](CCCNC(=N)N)C(=O)N[C@@H](C)C(=O)NCCCC[C@H](NC(=O)CCNC(=O)[C@H](C)NC(=O)[C@H](CCCNC(=N)N)NC(=O)[C@H](C)NC(=O)[C@H](C)NC(=O)[C@H](CC(C)C)NC(=O)[C@H](Cc1c[nH]c2ccccc12)NC(=O)[C@H](CCC(N)=O)NC(=O)[C@H](CCCNC(=N)N)NC(=O)[C@H](CC(C)C)NC(=O)[C@@H](NC(=O)[C@@H]1CCCN1C(=O)CNC(=O)[C@H](CCC(=O)O)NC(=O)[C@@H](N)[C@@H](C)CC)[C@@H](C)O)C(N)=O)[C@@H](C)O [TMP C-C dimer]
- activity compared with the natural ligand, previously reported (c-Mp1): as active as the natural ligand
- in vitro bioactivity, in words (human mpl receptor): lower than that of the native TPO protein
